Measured values as given in PubChem BioAssay AID1347076 (National Center for Advancing Translational Sciences (NCATS), 2019).
The campaign covered roughly 400,000 compounds. About 13,000 (3.2%) were called active. Inconclusive means that the source gave no clear call. Such entries were picked first, then a sample of the others. Calls follow the shape of the dose curve; as a rule, active = well fitted cell-killing curve with a large enough effect; inconclusive = small, poorly fitted or top-dose-only effect, or effect the other way; inactive = flat fitted curve, though single readings scatter. Potencies beside an inconclusive call are fits to weak or partial responses and may not hold up.

Experiment: qHTS assay for MDR1-selective chemotherapeutics: Primary screen using the drug-selected MDR subline cells KB-V1; also: nearly all actives have a fitted effect of over 60% in size
Conditions: KB-V1 MDR cells viability, CellTiter-Glo, 72 h; activity change, negative = cytotoxicity: at 46.1 µM (top of the series)
Method in brief: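 Potencies derive from concentration-effect curves fitted to normalized luminescence (CellTiter-Glo) of KB-V1 cells treated for 72 h at 37 degrees C in phenol-red-free DMEM containing 10% FBS.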
% is scaled to controls: 0 for no effect and ±100 for the full control effect; potency is read from the fitted curve at half-maximal effect.

Structure (SMILES)	activity change, negative = cytotoxicity	Potency
C/C(=N\NC(=O)c1ccccc1O)c1cccc(NC(=O)c2ccccc2)c1	inactive: -14.1%	–
Cn1c(=O)c2c(nc(Br)n2CCSc2nc3ccccc3o2)n(C)c1=O	–	active: 6.51 µM
CCN(CC)c1nc(C=Cc2ccc(N(C)C)cc2)c2nccnc2n1	inactive: -10.6%	–
Cc1ccc(NNC(=O)c2c(C)noc2C)cc1Cl	inactive: 6.43%	–
Cc1ccc(NC(=O)COC(=O)c2cc(=O)c3ccccc3o2)c(Br)c1	–	inconclusive: 0.164 µM [rising, full curve, poor fit]
COc1ccc(S(=O)(=O)N(CC(=O)Nc2ccccc2Cl)Cc2ccccc2)cc1	–	inconclusive: 13 µM [cytotoxic, partial curve]
O=C1CCc2cc(NS(=O)(=O)c3ccccc3)cc3c2N1CCC3	inactive: -1.88%	–
O=C(Nc1ccc(Cl)cc1Cl)C1CCCO1 (stereo unspecified)	–	inconclusive: 29.1 µM [rising, single point]
O=C(Nc1ccc(Cl)cc1)NC1CCCCC1Cc1ccco1 (stereo unspecified)	–	inconclusive: 29.1 µM [cytotoxic, single point]
CCN(CC)C(=O)C1=C(C)N(CCCOC)C(=O)C(CC(=O)NCc2cccs2)C1 (stereo unspecified)	inconclusive: 24.2%	–
Fc1ccccc1COc1ccc(Br)cc1CNCC1CCCO1 (stereo unspecified)	–	inconclusive: 13 µM [cytotoxic, partial curve]
CC(C)Sc1nc(N2CCOCC2)c2c(c1C#N)CC(C)(C)N(C)C2	inactive: -29.8%	–
O=C(c1ccco1)N1CCCN(Cc2nc(-c3ccc4c(c3)OCO4)no2)CC1	–	inconclusive: 14.6 µM [cytotoxic, partial curve]
COc1cccc(/C=N/NC(=O)CN(CCc2ccccc2)S(=O)(=O)c2ccc(NC(C)=O)cc2)c1	–	inconclusive: 16.4 µM [cytotoxic, single point]
Cc1cccc(N(CC(=O)NC2CCCCC2)C(=O)c2csnn2)c1	–	inconclusive: 29.1 µM [cytotoxic, single point]
C=CC[C@@H](CC(=O)N[C@H](CO)Cc1ccccc1)C(=O)NCCOC(=O)[C@@H](CC=C)CC(=O)OC(C)(C)C	–	inconclusive: 10.3 µM [rising, single point]
O=C(N/N=C/c1c(Cl)cccc1Cl)c1cccc(F)c1	inactive: -2.43%	–
CCOc1ccc(NC(=O)Nc2cnccn2)cc1	inactive: -15.9%	–
COc1cccc(CN2CCN(S(=O)(=O)c3ccc(Cl)s3)CC2)c1	–	inconclusive: 18.4 µM [cytotoxic, single point]
O=C(CCNC(=O)N1CC(=O)Nc2ccccc21)NCc1ccccc1	–	inconclusive: 18.4 µM [rising, single point]
COC(=O)c1cccc(N2C(=O)C[C@](Sc3ccc(C)cc3)(C(=O)OC)[C@H]2c2ccccc2)c1	–	inconclusive: 29.1 µM [cytotoxic, single point]
O=C(Nc1ccc(F)cc1F)c1cc(S(=O)(=O)N2CCCCC2)c[nH]1	–	inconclusive: 6.51 µM [cytotoxic, partial curve]
CCN(CC)C(=O)Cn1c(=O)n(Cc2ccc(C(=O)NCCCOC)cc2)c(=O)c2ccccc21	–	inconclusive: 13 µM [rising, partial curve, poor fit]
O=C(Nc1nccs1)c1sc2cc(Cl)ccc2c1Cl	–	inconclusive: 20.6 µM [cytotoxic, partial curve, poor fit]

Structure (SMILES)	activity change, negative = cytotoxicity	Potency
O=C(CSc1nnc2c(Cl)cc(C(F)(F)F)cn12)NCc1ccc(F)cc1	–	inconclusive: 7.31 µM [cytotoxic, partial curve]
COc1cccc2cc(C(=O)Oc3ccccc3)c(=O)oc12	–	inconclusive: 18.4 µM [rising, single point]
COc1ccc(C(=O)CCC(=O)Nc2ccc(F)cc2F)cc1	inactive: 9.81%	–
COC(=O)c1sccc1-c1ccc(C(=O)Nc2cccnc2)o1	–	active: 5.8 µM
O=C(CCc1nnc(-c2ccc(-c3ccccc3)cc2)o1)NCCc1ccccn1	–	inconclusive: 16.4 µM [cytotoxic, partial curve]
O=[N+]([O-])c1ccc(NS(=O)(=O)c2ccc(Cl)c(Cl)c2)cc1	–	inconclusive: 16.4 µM [cytotoxic, partial curve]
Cc1cc(=O)oc(C)c1C(=O)NCc1cccnc1	–	inconclusive: 10 µM [rising, partial curve]
O=C(Cc1cccs1)Nc1ccc(-c2nc3ccccc3[nH]2)cc1	inactive: -24.3%	–
CC(=O)c1c(C)oc2c1cc(NS(=O)(=O)c1c(C)cc(C)cc1C)c1ccccc12	–	inconclusive: 3.66 µM [cytotoxic, full curve, poor fit]
CCOC(=O)C1=C(C)N=C2SCCC(=O)N2C1c1ccc(OCc2ccccc2)c(OC)c1 (stereo unspecified)	inactive: -11.1%	–
COC(=O)c1sccc1S(=O)(=O)N(CC(=O)NCc1ccc(C)cc1)c1ccc(C)c(C)c1	inactive: -0.862%	–
CC(=O)C1(C)CCC2C3C=C(C)C4=CC(=O)CCC4(C)C3CCC21C (stereo unspecified)	–	active: 4.61 µM
Cc1ccc(C2NC(=NCc3ccccc3)Nc3nc(C)cc(=O)n32)cc1 (stereo unspecified)	–	inconclusive: 4.61 µM [rising, full curve, poor fit]
CCOC(=O)CSc1nc2cc(OC)c(OC)cc2c2nc(-c3ccccc3)nn12	inactive: 0%	–
O=C(O)c1ccc(N/N=C/c2cn(Cc3ccccc3F)c3ccccc23)cc1	inactive: -4.98%	–
CC(=O)c1cccc(NC(=O)Cn2nc(-c3ccc(Cl)cc3)ccc2=O)c1	–	inconclusive: 29.1 µM [cytotoxic, single point]
COc1ccc(-n2cc(CN(C)C3CCOCC3)c(-c3cccc(F)c3)n2)cc1	–	inconclusive: 2.59 µM [cytotoxic, full curve]
Cc1ccc2nc(N(CCCN(C)C)C(=O)c3ccc4ncsc4c3)sc2c1	inactive: -8.73%	–
Cc1ccc(-c2nc3c(Cl)cc(C(F)(F)F)cn3c2Cc2cccc(Cl)c2)cc1	inactive: -0.482%	–
COc1ccc(CN2[C@@H](CC(C)=O)c3cc(C(F)(F)F)ccc3S2(=O)=O)cc1	–	inconclusive: 13 µM [cytotoxic, partial curve]
CC(=O)C1CCC2C(CCC3=CC(=O)CCC32)C1 (stereo unspecified)	–	inconclusive: 4.11 µM [cytotoxic, partial curve, poor fit]
O=C(CN1CCCCC1)Nc1cc(Cl)ccc1Oc1ccccc1	–	inconclusive: 14.6 µM [cytotoxic, partial curve]
COc1ccc([C@H]2CC(=O)C=C(c3ccc(Cl)c(C(F)(F)F)c3)C2)cc1	inactive: -1.92%	–
COc1ccc(-n2nc3c(c2NC(=O)C2CCCC2)CS(=O)C3)cc1 (stereo unspecified)	–	inconclusive: 8.2 µM [rising, partial curve]

Structure (SMILES)	activity change, negative = cytotoxicity	Potency
Cc1nn(Cc2ccc(Cl)cc2)c(C)c1NC(=O)CCCn1nc(C)c([N+](=O)[O-])c1C	–	inconclusive: 20.6 µM [cytotoxic, partial curve, poor fit]
Cc1cccc(-c2noc(-c3ccccc3OCC(=O)Nc3ccccc3[N+](=O)[O-])n2)c1	inactive: 17.1%	–
O=C(O)CCCNC(=O)c1cncc(Br)c1	inactive: 5.04%	–
COc1ccc(-c2nnc(SCC(=O)N3CCc4ccccc43)o2)cc1OC	–	inconclusive: 23.1 µM [rising, partial curve, poor fit]
CC(C(=O)NCCS(=O)(=O)c1ccc(Cl)cc1)S(=O)(=O)c1ccc(Cl)cc1 (stereo unspecified)	–	inconclusive: 20.6 µM [cytotoxic, single point]
O=C(Nc1ccc2c(c1)OCO2)C1CC(=O)N(CCc2ccccc2)C1 (stereo unspecified)	inactive: -23.2%	–
Cc1ccc(S(=O)(=O)NNC(=O)c2ccccc2-n2cccc2)cc1	–	inconclusive: 29.1 µM [cytotoxic, single point]
Cc1onc(-c2ccccc2)c1C(=O)N/N=C/c1c[nH]c2ccccc12	–	inconclusive: 29.1 µM [cytotoxic, single point]
CCCn1cnc2c(sc3nc4c(cc32)CSC(C)(C)C4)c1=O	inactive: -24.1%	–
C=CCn1c(CCSCc2ccccc2)n[nH]c1=S	–	inconclusive: 20.6 µM [cytotoxic, single point]
CCOC(=O)c1sc2nc(CC(=O)OC)nc(NCC(=O)OC)c2c1C	inactive: 5.61%	–
COc1cccc(NC(=O)CN(C)C(=O)Cc2ccc3c(c2)OCCO3)c1	inconclusive: 37.7%	–
CC1(C)CC2(CC(C)(C(=O)CSc3nc4ccccc4s3)OC2=O)C(=O)O1 (stereo unspecified)	–	inconclusive: 23.1 µM [cytotoxic, partial curve, poor fit]
O=C1CC(N(CCc2ccccc2)C(=S)Nc2ccccc2)C(=O)N1c1ccccc1 (stereo unspecified)	–	active: 16.4 µM
COc1ccc(C(CCNCc2ccccc2)c2ccc(F)cc2)cc1 (stereo unspecified)	–	active: 18.4 µM
COc1cc(C(=O)N2CCN(c3cc(Cl)ccc3Cl)CC2)cc(OC)c1OC	–	inconclusive: 0.58 µM [cytotoxic, full curve]
CS(=O)(=O)N1CCc2cc(-c3csc(NC(=O)C(c4ccccc4)c4ccccc4)n3)ccc21	–	inconclusive: 10.3 µM [cytotoxic, partial curve]
CC(=O)Nc1cccc(OCc2ccc(S(=O)(=O)Cc3ccccc3)cc2)c1	–	active: 18.4 µM
COc1ccc(-c2noc(N3CCCC(C(=O)Nc4ccc(C(C)=O)cc4)C3)n2)cc1 (stereo unspecified)	inactive: 1.11%	–
COc1cccc2c1C(CO)N1C(C#N)C3CC(C(=O)O)C(C1C2)N3C (stereo unspecified)	–	active: 0.206 µM
CCOC(=O)c1ccc(N2C(=O)C(CC(=O)NC)N(CCc3ccc(OC)c(OC)c3)C2=S)cc1 (stereo unspecified)	inactive: 17.8%	–
Nc1cc2nn(-c3ccccc3)nc2cc1Cl	–	inconclusive: 7.31 µM [rising, partial curve, poor fit]
O=C(NC1CC1)c1cccc(NC(=O)C2CCN(S(=O)(=O)c3cccc(C(F)(F)F)c3)CC2)c1	–	inconclusive: 16.4 µM [rising, single point]

3 structures out of the list, sorted by length of the SMILES, smallest number first:
Structure (SMILES)	activity change, negative = cytotoxicity	Potency
CC(=O)Nc1cccc(OCc2ccc(S(=O)(=O)Cc3ccccc3)cc2)c1	–	active: 18.4 µM
CC1(C)CC2(CC(C)(C(=O)CSc3nc4ccccc4s3)OC2=O)C(=O)O1 (stereo unspecified)	–	inconclusive: 23.1 µM [cytotoxic, partial curve, poor fit]
COc1ccc(-c2noc(N3CCCC(C(=O)Nc4ccc(C(C)=O)cc4)C3)n2)cc1 (stereo unspecified)	inactive: 1.11%	–
